Experimental data from patent US20060052421A1, “Conjugation agent” (Eastman Kodak Company, priority 2004, published 2006).

Test: Chemoselectivity for thiol-containing groups relative to amines: reaction with lysine, ratio of rate constants
Settings: for Selectivity, krel(thiol)/krel(amine): Table 2, water soluble conjugation agents, determined as for Table 1

| Structure (SMILES) | Selectivity, krel(thiol)/krel(amine) | Selectivity for thiol-containing groups relative to C6 (Table 2 data) |
| --- | --- | --- |
| C=CS(=O)(=O)CS(=O)(=O)C=C [C9, bis(vinylsulfonyl)methane, reference compound] | 538 | – |
| CCn1nnnc1Sc1c(C(=O)NCCC(=O)O)cc([N+](=O)[O-])cc1[N+](=O)[O-] [I4] | 369,000 | about 88 times |
| CCn1nnnc1Sc1c([N+](=O)[O-])cc(C(=O)NCCC(=O)O)cc1[N+](=O)[O-] [I5] | 178,000 | – |
| CCn1nnnc1Sc1cc[n+](Cc2ccccc2)cc1 [I6] | 10^7 | – |
